# Assay results taken from article PMC12670160, “A drug-repurposing screen of FDA- and EMA-approved drugs identifies two NF-κB inhibitors active against eumycetoma” (Journal of Antimicrobial Chemotherapy, 2025).
# Structures can show the parent of a compound that is named as a salt. Screen size: about 5,300 compounds; about 130 (2.5%) showed an effect of 50% or more. The list shows a part of the results.
# Tested on: M. mycetomatis strain mm55
# Settings: primary screen, metabolic activity vs growth control; 96 h, 2 µM; inhibitor
row,Compound,% viability [%]
1,"O=C(/C=C/c1ccccc1)NC(NC(=S)Nc1cccc2cccnc12)C(Cl)(Cl)Cl (stereo not drawn) [ONC0001383, salubrinal]",125.4
2,"CCCN(CCC)C(=O)Cc1c(-c2ccc(Cl)cc2)nc2ccc(Cl)cn12 [ONC0004067, alpidem]",111.1
3,"Fc1ccc(Cl)cc1-c1nc(Nc2ccncc2)c2nccnc2n1 [ONC0002569, sd208]",76.17
4,"C=CC1=C(C)c2cc3[nH]c(cc4nc(cc5[nH]c(cc1n2)c(C)c5CCC(=O)O)C(CCC(=O)O)=C4C)c(C)c3C=C [ONC0000685, protoporphyrin ix]",98.29
5,"CC1CNc2c(cccc2S(=O)(=O)N[C@@H](CCCNC(=N)N)C(=O)N2CC[C@@H](C)C[C@@H]2C(=O)O)C1 (stereo partly drawn) [ONC0004592, argatroban]",77.15
6,"CN(C)CCN(Cc1ccccc1)c1ccccn1 [ONC0003240, tripelennamine citrate]",103.5
7,"COc1ccccc1N1CCN(CCN(C(=O)C2CCCCC2)c2ccccn2)CC1 [ONC0005214, way100635 maleate]",121.7
8,"CN1C(=O)CC(c2ccccc2)C1=O (stereo not drawn) [ONC0003880, phensuccimide]",62.12
9,"O=C(NCCCN1CCC2(CC1)OCc1ccccc12)[C@H]1CCCN1Cc1ccccc1 [ONC0000855, banorl24]",58.7
10,"Nc1ccn([C@@H]2O[C@H](CO)[C@@H](O)C2(F)F)c(=O)n1 [ONC0001279, gemcitabine]",63.43
11,"C[C@@H](O)[C@H]1C(=O)N2C(C(=O)[O-])=C([C@H]3CCCO3)S[C@H]12.C[C@@H](O)[C@H]1C(=O)N2C(C(=O)[O-])=C([C@H]3CCCO3)S[C@H]12.O.O.O.O.O.[Na+].[Na+] [ONC0000335, faropenem sodium hemipentahydrate]",95.52
12,"N#Cc1nn(-c2c(Cl)cc(C(F)(F)F)cc2Cl)c(N)c1[S+]([O-])C(F)(F)F (stereo not drawn) [ONC0003912, fipronil]",85.63
13,"O=C/C=C/c1ccccc1 [ONC0003660, cinnamaldehyde]",81.58
14,"O=C(O)C(=O)Nc1cccc(-c2nnn[nH]2)c1 [ONC0003654, acitazanolast]",75.36
15,"Cc1c(C2CCN(CCc3ccccc3)CC2)noc1-c1ccc(Cl)cc1 [ONC0001476, l741742]",80.55
16,"CCNC(=O)c1[nH]nc(-c2cc(Cl)c(O)cc2O)c1-c1ccc(OC)cc1 [ONC0005116, ver49009]",88.78
17,"CCC(CC)n1ccc2c(C(=O)NCc3c(C)cc(C)[nH]c3=O)cc(C#N)cc21 [ONC0001917, ei1]",88.07
18,"C[C@H](NC(=O)/C(C#N)=C/c1cccc(Br)n1)c1ccccc1 [ONC0005269, wp1066]",145.9
19,"CC(C)c1ccc(NC(=O)Cn2cnc3c2c(=O)n(C)c(=O)n3C)cc1 [ONC0005248, hc030031]",89.98
20,"O=C(O)c1cc(O)c2c3nc4ccccc4oc-3cc(=O)c2n1 [ONC0003322, pirenoxine]",84.14

row,Compound,% viability [%]
1,"CC(C)C(N)=O [ONC0003586, isobutyramide]",107
2,"Cc1ccccc1NC(=N)Nc1ccccc1C [ONC0000016, ditolylguanidine]",74.3
3,"O=C(NCCN1CCN(c2ncccn2)CC1)C12CC3CC(CC(C3)C1)C2 [ONC0002342, adatanserin]",65.36
4,"CCOC(=O)[C@@H](C)Oc1ccc(Oc2nc3ccc(Cl)cc3o2)cc1 [ONC0001136, fenoxaproppethyl]",62.16
5,"COc1ccncc1C(=O)NC(=O)Nc1ccc(-c2ccccc2)c(C(F)(F)F)c1 [ONC0000985, s1p1 agonist iii]",70.46
6,"CC(C1=C(CCN(C)C)Cc2ccccc21)c1ccccn1 (stereo not drawn) [ONC0004066, dimetindene]",97.76
7,"CC(C)(C)NCC(O)COc1ccc(NC(=O)NC2CCCCC2)cc1 (stereo not drawn) [ONC0003803, talinolol]",63.39
8,"CC(OC(=O)OC1CCCCC1)OC(=O)C1=C(CSc2nnnn2CCN(C)C)CS[C@@H]2[C@H](NC(=O)Cc3csc(N)n3)C(=O)N12 (stereo partly drawn) [ONC0002150, cefotiam hexetil hydrochloride]",76.82
9,"CCNC(=O)Nc1ccc(-c2nc3c(c(N4CCOC[C@@H]4C)n2)CCN(C2COC2)C3)cc1 [ONC0005017, gdc0349]",89.46
10,"O=C(O)c1ccccc1NC(=O)C12CC3CC(CC(C3)C1)C2 [ONC0003710, anthranilicacid]",110.1
11,"CCCN(CCC)S(=O)(=O)c1ccc(C(=O)O)cc1 [ONC0000488, probenecid]",54.23
12,"CC[C@@]1(O)C(=O)OCc2c1cc1n(c2=O)Cc2cc3ccccc3nc2-1 [ONC0002713, camptothecin]",62.06
13,"CCN(CCNC(=O)Nc1ccccc1Br)c1cccc(C)c1 [ONC0000709, sb452533]",78.96
14,"C[C@]12CC[C@@H]3c4ccc(O)cc4CC[C@H]3[C@@H]1CC[C@@H]2O [ONC0000707, estradiol]",85.31
15,"CCCCCOc1c(OC)ccc2cc(C(=O)NCc3ccc4c(c3)OCO4)c(=O)[nH]c12 [ONC0003561, jte907]",130
16,"CN(C)CC/C=C1/c2ccccc2Sc2ccc(Cl)cc21 [ONC0002875, chlorprothixene hydrochloride]",112.7
17,"OC(CN1CCC(Cc2ccc(F)cc2)CC1)c1ccc(Cl)cc1 (stereo not drawn) [ONC0000141, eliprodil]",106.1
18,"CC(=O)[C@H]1CC[C@H]2[C@@H]3CCC4=CC(=O)CC[C@]4(C)[C@H]3CC[C@]12C [ONC0000479, progesterone]",66.95
19,"CN[C@@H]1[C@@H](O[C@H]2O[C@H](CO)[C@@H](N)[C@H](O)[C@H]2O)O[C@H]2C[C@@H](N)[C@H](O[C@H]3[C@H](O)[C@@H](O)[C@H](N)C[C@@H]3N)O[C@@H]2[C@@H]1O [ONC0004303, apramycin sulfate]",95.92
20,"O=C(O)CSc1nnc(Br)n1-c1ccc(C2CC2)c2ccccc12 [ONC0002543, lesinurad]",74.09

# Ordered by SMILES length (low to high): some entries from above.
row,Compound,% viability [%]
19,"CC(C)c1ccc(NC(=O)Cn2cnc3c2c(=O)n(C)c(=O)n3C)cc1 [ONC0005248, hc030031]",89.98
1,"O=C(/C=C/c1ccccc1)NC(NC(=S)Nc1cccc2cccnc12)C(Cl)(Cl)Cl (stereo not drawn) [ONC0001383, salubrinal]",125.4
8,"CC(OC(=O)OC1CCCCC1)OC(=O)C1=C(CSc2nnnn2CCN(C)C)CS[C@@H]2[C@H](NC(=O)Cc3csc(N)n3)C(=O)N12 (stereo partly drawn) [ONC0002150, cefotiam hexetil hydrochloride]",76.82

# The results go on:

row,Compound,% viability [%]
1,"CN[C@@H](C)C(=O)N[C@H](C(=O)N1CCC[C@H]1C(=O)N[C@H]1c2ccccc2C[C@H]1OCC#CC#CCO[C@@H]1Cc2ccccc2[C@@H]1NC(=O)[C@@H]1CCCN1C(=O)[C@@H](NC(=O)[C@H](C)NC)C1CCCCC1)C1CCCCC1 [ONC0002200, azd5582]",64.8
2,"C[C@@H]1O[C@@]2(CS1)CN1CCC2CC1.C[C@H]1O[C@]2(CS1)CN1CCC2CC1.Cl [ONC0002680, cevimeline]",67.14
3,"Cc1cc(C(=O)N2Cc3cnn(C)c3Nc3ccccc32)ccc1CNC(=O)N1CCC[C@H]1C(=S)N1CCCN(C)CC1 [ONC0002553, tcot39]",66.2
4,"COc1cc2c(Nc3ccc(Cl)c(Cl)c3F)ncnc2cc1OC[C@@H]1C[C@@H]2CN(C)C[C@@H]2C1 [ONC0000890, tesevatinib]",76.06
5,"Cn1c(COc2ccc(CC3SC(=O)NC3=O)cc2)nc2ccccc2c1=O (stereo not drawn) [ONC0001763, balaglitazone]",106
6,"Cc1cc(=O)oc2c(C=O)c(O)ccc12 [ONC0004804, 4ü¾˜¶Œ¼8c]",66.99
7,"COc1ccc2[nH]c([S+]([O-])Cc3ncc(C)c(OC)c3C)nc2n1 (stereo not drawn) [ONC0004125, tenatoprazole]",105.3
8,"CCOC(=O)CCNc1cc(N2CCc3ccccc3CC2)nc(-c2ccccn2)n1 [ONC0005162, gsk j4 hcl]",107.7
9,"O=C(O)CCCCC(=O)O [ONC0003733, adipicacid]",129.5
10,"C=C1CC[C@H](O)C/C1=C/C=C1\CCC[C@]2(C)[C@@H]([C@H](C)CCCC(C)(C)O)CC[C@@H]12 [ONC0004584, calcifediol]",84.04
11,"O=C1CCC2CCC(=O)N12 [ONC0002137, rolziracetam]",75.98
12,"CCC(c1ccccc1)c1c(O)c2ccccc2oc1=O (stereo not drawn) [ONC0003767, phenprocoumon]",91.55
13,"O=C(NCCS(=O)(=O)c1ccc(C(F)(F)F)cn1)c1ccc(Cl)cc1 [ONC0004524, gsk3787]",83.94
14,"CCn1c(=O)n([C@H]2CCCN(c3nccc(-c4cc5ccccc5o4)n3)C2)c2ccccc21 [ONC0001458, tcf2]",58.53
15,"CC(=O)N[C@@H](CC(C)C)C(=O)O [ONC0000672, acetyllleucine]",92.2
16,"CC(C)[C@H]1C(=O)N[C@@H](CCCN=C(N)N)C(=O)NCC(=O)N[C@@H](CC(=O)O)C(=O)N[C@H](Cc2ccccc2)C(=O)N1C [ONC0004350, cilengitide trifluoroacetate]",126.5
17,"CC(C)(C)Sc1c(CC(C)(C)C(=O)O)n(Cc2ccc(Cl)cc2)c2ccc(OCc3ccc4ccccc4n3)cc12 [ONC0000944, mk591 free acid]",65.52
18,"OC(c1ccccc1)C1CCN(CCc2ccccc2)CC1 (stereo not drawn) [ONC0000786, mdl11939]",80.2
19,"Cc1c[nH]c2ncnc(N3CCC(CN)(C(=O)Nc4cccc(OC(=O)N(C)C)c4)CC3)c12 [ONC0001102, lx7101]",57.95
20,"CC(=O)c1cnc2ccc(-c3cc(Cl)c(O)c(Cl)c3)nc2c1N[C@H]1CC[C@H](CN(C)C)CC1 [ONC0000872, otssp167 hydrochloride]",72.3
